# From PubChem BioAssay AID2417 (National Center for Advancing Translational Sciences (NCATS), 2010)
# The campaign covered roughly 140,000 compounds. About 4,300 (3.1%) were called active. The inconclusive results got no clear call from the source; some entries with a clear call stand among them for comparison.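 How the source made its calls: active means readout at or below -70, meaning at least 70% loss of cells showing the perinucleolar compartment, a nuclear body marking cancer cells; inconclusive means readout between -30 and a set limit; inactive means the rest.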
# Assay: High Content Assay for Compounds that inhibit the Assembly of the Perinucleolar Compartment;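 further: plate controls were DMSO wells for no effect and camptothecin positive control wells for full effect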
# Conditions: PC3M PTB-GFP, PNC prevalence imaging, 16 h; at 10 µM; stronger effect = lower value
# Summary of the method: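 PC3M cells stably expressing PTB-GFP, 750–1000 cells/well, treated 16 h at 37 °C with compound (23 nl of library stock), in duplicate. After paraformaldehyde fixation and Hoechst stain, imaged at 20x; PNC prevalence scored by image analysis.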
row,SMILES,"activity change (PNC), negative = inhibition"
1,O=C(NC1CCC(O)CC1)c1ccc(S(=O)(=O)NCc2ccco2)cc1 (stereo not given),inactive: -13.5%
2,CC(=O)N1CCc2cc(S(=O)(=O)NCCC(=O)N3CCc4ccccc4C3)ccc21,inconclusive: -64.7%
3,CC1(C)CC(=O)CC(=O)/C1=N\Nc1c(Cl)cc(Cl)cc1Cl,inconclusive: -40.1%
4,CCCS(=O)(=O)N1CCC(C(=O)NCc2ccccc2Cl)CC1,inconclusive: -44.5%
5,COc1cccc(NS(=O)(=O)c2c(C)n(C)c(=O)n(C)c2=O)c1,inconclusive: -36.1%
6,Cc1ccnc(SCc2cc(=O)c(OC(=O)c3ccc(Cl)c([N+](=O)[O-])c3)co2)n1,inactive: 27.5%
7,COc1ccc(NC(=O)C2=C(C)C(=O)OC23CCC(C)CC3)c(OC)c1 (stereo not given),inconclusive: -37.6%
8,Cc1ccc(-n2c(C)cc(C(=O)OCC(=O)N(CC(C)C)C3CCS(=O)(=O)C3)c2C)cc1 (stereo not given),inconclusive: -34.2%
9,COC(=O)C(Cc1ccc(O)cc1)NC(=O)CCC(=O)Nc1ccc(S(N)(=O)=O)cc1 (stereo not given),inactive: 15.1%
10,CCOc1ccc(C2NC(=O)NC(C)=C2C(=O)OC)cc1C (stereo not given),inconclusive: -31.2%
11,O=c1[nH]c2ccccc2c(=O)n1Cc1ccccc1,inconclusive: -34.7%
12,COc1ccc(S(=O)(=O)N2CCC(C(=O)Nc3ccccc3C)CC2)c2cccnc12,inactive: -16%
13,COc1cc(C2c3c(oc4ccccc4c3=O)C(=O)N2Cc2ccncc2)ccc1O (stereo not given),inactive: -8.11%
14,Cc1ccccc1CSCCNC(=O)CCSc1ccccc1,inactive: 24.4%
15,COc1ccc(C(=O)N/N=C(/C)c2cccc(NC(=O)C(F)(F)F)c2)cc1,inconclusive: -49.7%
16,CCOC(=O)C1=C(O)/C(=C\c2sccc2C)N=C1C,inconclusive: -30.2%
17,Cc1ccccc1C(=O)N1CCN(c2ccc(NC(=O)c3ccco3)cc2Cl)CC1,inconclusive: -32.8%
18,Cc1ccc(CS(=O)(=O)Cc2ccc(C(=O)NCc3cccnc3)o2)cc1,inactive: 22.7%
19,CCOc1ccccc1CN(Cc1ccco1)S(=O)(=O)c1ccc(-n2cnnn2)c(OC)c1,inconclusive: -47.8%
20,O=C(CN1CCN(c2ccc(O)cc2)CC1)NC(=O)NCc1ccco1,inactive: 58.2%
21,COc1ccc(NC(=O)C23CC4CC(C2)CC(c2ccccc2)(C4)C3)c(OC)c1,inconclusive: -44%
22,COC(=O)c1ccc(-c2nc(O)c3cnccn23)cc1,inactive: -2.64%
23,CC(=O)c1cccc(NC(=S)NC(=O)c2ccccc2)c1,inactive: 34.1%

row,SMILES,"activity change (PNC), negative = inhibition"
1,COc1ccccc1CNn1c(-c2cccc(C)c2)nc2ccccc2c1=O,inconclusive: -58%
2,Cc1ccc2c(c1)nnn2C1CCN(S(=O)(=O)c2ccc(C(=O)N(C)C)cc2)CC1,inconclusive: -30.5%
3,CC(C)CCNC(=O)[C@H](CC(C)C)NC(=O)[C@H]1O[C@@H]1C(=O)O,inconclusive: -63.2%
4,COC(=O)CCC(=O)N1CCc2cc(S(=O)(=O)N3CCN(c4ccccc4Cl)CC3)ccc21,inconclusive: -33.8%
5,Cc1ccc2c(C(=O)CN3CCCC3)c(C)[nH]c2c1,inconclusive: -57.5%
6,COc1ccc(OC)c(-c2cc(C3CCN(c4ncccc4[N+](=O)[O-])CC3)[nH]n2)c1,inactive: 30.3%
7,CCn1nnnc1SCC(=O)Nc1nc(-c2cccs2)cs1,inconclusive: -33.7%
8,O=C(/C=C/c1ccccc1Cl)N1CCN(c2ncccn2)CC1,inconclusive: -37.7%
9,CC1(C)NC(=O)N(CC(O)CN2CCCCC2)C1=O (stereo not given),active: -93.8%
10,CCC(C)NC(=O)CSc1nnc(-c2cc(-c3cccs3)nc3ccccc23)o1 (stereo not given),inconclusive: -38.1%
11,C=CCc1cccc2cc(C(=O)N3CCN(C(=O)OCC)CC3)c(=O)oc12,inconclusive: -56.8%
12,CC(C)OC(=O)CC(=O)CSc1nc2c(cc1C#N)CCCCC2,inconclusive: -53.9%
13,Cc1occc1-c1nnc(SCC(=O)NC(=O)NC(C)C)n1N,inactive: -14.6%
14,O=C(CN(Cc1ccco1)C(=O)CNS(=O)(=O)c1ccccc1)NCc1ccc(F)cc1,inconclusive: -66.5%
15,CCn1c(Cc2cccc3ccccc23)nnc1SCC(=O)Nc1nccs1,active: -100%
16,Cc1ccc2cc3cc(C(=O)N4CCCCCC4)oc3nc2c1,inconclusive: -50.1%
17,COc1cc(CNC2CCCCC2OC)cc(OC)c1OC (stereo not given),inconclusive: -44.7%
18,O=C(Oc1ccc2ccccc2c1Cl)N1CCCC1,active: -88.5%
19,CCOC(=O)C(NCCc1ccccc1F)(NC(C)=O)C(F)(F)F (stereo not given),inactive: -25.3%
20,COc1cc(CNCCc2ccc(S(N)(=O)=O)cc2)ccc1OCC(=O)N1CCCCC1,inconclusive: -55.7%
21,C(#Cc1ccccc1)Cn1nnc2ccccc21,inconclusive: -47.2%
22,COc1ccccc1N1CCN(C(=O)c2sc3nc(-c4ccc(F)cc4)cn3c2C)CC1,inconclusive: -32.1%

# Pulled one by one from above:
row,SMILES,"activity change (PNC), negative = inhibition"
21,C(#Cc1ccccc1)Cn1nnc2ccccc21,inconclusive: -47.2%
16,Cc1ccc2cc3cc(C(=O)N4CCCCCC4)oc3nc2c1,inconclusive: -50.1%
20,COc1cc(CNCCc2ccc(S(N)(=O)=O)cc2)ccc1OCC(=O)N1CCCCC1,inconclusive: -55.7%
